In the assay the target is Flag-tagged PHF8 (PHD finger protein 8) (UniProt Q9UPP1). Put plainly: co-IP; Flag-PHF8 co-expressed with KDM2A or KDM2A constructs in 293T cells; lysates in IP buffer (0.1% Triton X-100, 300 mM NaCl, 300 mM sucrose, 1 mM MgCl2, 1 mM EGTA, 10 mM PIPES pH 7.0) precipitated with anti-Flag M2 agarose; Western blot with anti-KDM2A or anti-GFP; in Figure 4A cells with or without 2 mM 2DG for 2 h. In general terms: Immunoblotting shows a protein as a band on a membrane.

Amino acid sequences for entries named in this document (tags omitted).
UniProt Q9UPP1: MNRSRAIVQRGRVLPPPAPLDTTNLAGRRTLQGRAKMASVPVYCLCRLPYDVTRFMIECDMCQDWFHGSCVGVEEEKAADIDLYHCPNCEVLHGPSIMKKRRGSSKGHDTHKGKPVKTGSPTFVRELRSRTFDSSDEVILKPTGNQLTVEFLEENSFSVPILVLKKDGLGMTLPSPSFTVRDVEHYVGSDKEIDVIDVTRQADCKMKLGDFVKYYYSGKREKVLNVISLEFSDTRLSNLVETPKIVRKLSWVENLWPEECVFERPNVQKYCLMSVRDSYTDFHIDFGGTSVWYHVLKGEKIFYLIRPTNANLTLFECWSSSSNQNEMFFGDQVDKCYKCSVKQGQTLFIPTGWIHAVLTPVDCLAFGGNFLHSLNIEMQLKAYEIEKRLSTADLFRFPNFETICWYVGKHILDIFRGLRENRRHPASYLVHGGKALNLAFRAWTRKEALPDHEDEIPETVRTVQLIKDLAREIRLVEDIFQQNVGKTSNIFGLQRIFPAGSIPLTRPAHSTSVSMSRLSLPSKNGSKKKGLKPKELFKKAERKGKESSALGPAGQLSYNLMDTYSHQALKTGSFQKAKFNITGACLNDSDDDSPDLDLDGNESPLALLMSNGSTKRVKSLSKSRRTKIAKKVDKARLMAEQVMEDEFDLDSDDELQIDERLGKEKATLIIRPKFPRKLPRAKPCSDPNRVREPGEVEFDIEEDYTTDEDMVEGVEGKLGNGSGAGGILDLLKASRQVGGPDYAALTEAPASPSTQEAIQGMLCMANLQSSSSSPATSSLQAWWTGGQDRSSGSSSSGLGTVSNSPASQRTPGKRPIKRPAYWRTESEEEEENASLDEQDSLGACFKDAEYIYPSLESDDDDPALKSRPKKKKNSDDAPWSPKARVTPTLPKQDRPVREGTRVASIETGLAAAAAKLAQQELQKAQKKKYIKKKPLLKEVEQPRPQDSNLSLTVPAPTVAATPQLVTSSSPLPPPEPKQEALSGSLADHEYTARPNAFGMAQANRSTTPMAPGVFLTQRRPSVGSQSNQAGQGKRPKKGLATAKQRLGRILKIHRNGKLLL

No constants are given. Whether binding was seen depends on the method and setting. In cells and extracts the contact can be indirect. A result given as binding can be weak or reduced; the word gives no strength.

As to “KDM2A mutant lacking a PHD domain (from UniProt Q9Y2K7-1)”, the binding result is on record as “binds”.

Turning to “KDM2A mutant lacking an F-box domain (from UniProt Q9Y2K7-1)”, the binding entry was “binds”.

For the substance “KDM2A mutant lacking an LRR domain (from UniProt Q9Y2K7-1)”, the binding entry is recorded as “binds”.

These data come from article PMC12109296.
